Here are results for one sequence from paper PMC5996148.

This is one part of the list. For some assays here: Construct or isoform of the protein are uncertain.

Assay in all cases: protein microarray (ProtoArray v5.0), streptavidin-Alexa Fluor 647
What all share (conditions): 3'-biotin; 20 mM Tris (pH 7.5), 5 mM MgCl2, 100 mM KCl, 0.1% Tween-20, A/T-rich and random oligonucleotide blockers; temperature not stated; high values mean tight binding

Test [1] concerns the target T1, RNF4 (UniProt P78317).
T1 sequence: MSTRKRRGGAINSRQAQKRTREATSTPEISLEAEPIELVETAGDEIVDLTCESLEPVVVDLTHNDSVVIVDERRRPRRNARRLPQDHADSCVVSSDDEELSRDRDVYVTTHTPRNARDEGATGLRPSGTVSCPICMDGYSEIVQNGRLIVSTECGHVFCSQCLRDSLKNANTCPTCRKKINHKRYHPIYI

The test system of test [2] is RPAIN (human).
Test [3] deals with RPIA (UniProt P49247).
Test [4] has as its target RPL31 (UniProt P62899).
The subject of test [5] is RPLP2 (human).
The test system of test [6] is RRN3 (human).
The target of test [7] is RSBN1L (UniProt Q6PCB5).
In test [8] the target is T2, RTN1 (UniProt Q16799).
T2 sequence: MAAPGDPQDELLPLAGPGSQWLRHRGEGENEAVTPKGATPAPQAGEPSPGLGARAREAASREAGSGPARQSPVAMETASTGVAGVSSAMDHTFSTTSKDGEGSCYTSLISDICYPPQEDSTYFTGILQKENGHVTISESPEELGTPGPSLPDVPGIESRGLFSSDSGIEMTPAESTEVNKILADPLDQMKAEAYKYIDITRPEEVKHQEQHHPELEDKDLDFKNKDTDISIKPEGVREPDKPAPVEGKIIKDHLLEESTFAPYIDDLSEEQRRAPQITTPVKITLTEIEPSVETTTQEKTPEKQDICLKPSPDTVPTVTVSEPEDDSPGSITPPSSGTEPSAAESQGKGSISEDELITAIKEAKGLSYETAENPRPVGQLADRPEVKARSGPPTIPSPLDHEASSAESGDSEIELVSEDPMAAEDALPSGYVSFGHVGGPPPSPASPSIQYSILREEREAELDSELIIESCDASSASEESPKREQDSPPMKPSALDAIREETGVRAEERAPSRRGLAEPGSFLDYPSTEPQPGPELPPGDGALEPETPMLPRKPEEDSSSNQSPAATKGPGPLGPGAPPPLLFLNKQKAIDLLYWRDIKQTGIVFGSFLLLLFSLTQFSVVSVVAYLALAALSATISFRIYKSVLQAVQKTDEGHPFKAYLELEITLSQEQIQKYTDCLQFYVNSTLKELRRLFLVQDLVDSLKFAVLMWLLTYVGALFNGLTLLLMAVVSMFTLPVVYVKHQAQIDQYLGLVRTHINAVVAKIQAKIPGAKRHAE

Test [9] deals with RUNX1T1 (human).
In test [10] the test system is RWDD1 (human).
Test [11] concerns the target RWDD2B (UniProt P57060).
Test [12] deals with Rab9 effector protein with Kelch motifs (human).
For test [13], the system named is Rap1 GTPase-GDP dissociation stimulator 1 (human).
Test [14] relates to Ras-related protein Rab-39B (human).
For test [15], the system named is Ras-related protein Rab-3D (human).
Test [16] deals with Ras-related protein Rab-9B (human).
The subject of test [17] is Receptor expression-enhancing protein 1 (human).
Test [18] has as its system Receptor expression-enhancing protein 5 (human).
The subject of test [19] is Regenerating islet-derived protein 3 gamma (human).
Test [20] has as its system Regulator of G-protein signaling 3 (human).

For “GGTGACAGGGGTATGGGGAGGGG [G4-2 biotinylated (Ct1)]”, the binding signal in test [1] is 4.1 z-score; in test [2] it was -0.366 z-score; in test [3], -0.379 z-score; in test [4], 3.19 z-score; in [5], -0.398 z-score; in test [6], -0.374 z-score. In addition, the binding signal in [7] was 3.61 z-score; in test [8], -0.382 z-score; in test [9], -0.39 z-score; in test [10], -0.373 z-score; in [11] it was 6.09 z-score; in [12], -0.378 z-score. Besides, the binding signal is -0.382 z-score in [13]; -0.398 z-score in test [14]; -0.39 z-score in [15]; -0.398 z-score in test [16]; -0.38 z-score in [17]; -0.399 z-score in test [18]. The figures for the binding signal in test [19] and in test [20] were -0.401 z-score and 5.68 z-score, respectively.
